Measurements reported in the supplement of paper PMC10849652.
Some of the results follow.

Protein sequences, listed by entry. Tags and fused reporters are not part of them. Lines headed by an entry give the natural chain unless they say otherwise; changes in a name come on top.
UniProt Q92598: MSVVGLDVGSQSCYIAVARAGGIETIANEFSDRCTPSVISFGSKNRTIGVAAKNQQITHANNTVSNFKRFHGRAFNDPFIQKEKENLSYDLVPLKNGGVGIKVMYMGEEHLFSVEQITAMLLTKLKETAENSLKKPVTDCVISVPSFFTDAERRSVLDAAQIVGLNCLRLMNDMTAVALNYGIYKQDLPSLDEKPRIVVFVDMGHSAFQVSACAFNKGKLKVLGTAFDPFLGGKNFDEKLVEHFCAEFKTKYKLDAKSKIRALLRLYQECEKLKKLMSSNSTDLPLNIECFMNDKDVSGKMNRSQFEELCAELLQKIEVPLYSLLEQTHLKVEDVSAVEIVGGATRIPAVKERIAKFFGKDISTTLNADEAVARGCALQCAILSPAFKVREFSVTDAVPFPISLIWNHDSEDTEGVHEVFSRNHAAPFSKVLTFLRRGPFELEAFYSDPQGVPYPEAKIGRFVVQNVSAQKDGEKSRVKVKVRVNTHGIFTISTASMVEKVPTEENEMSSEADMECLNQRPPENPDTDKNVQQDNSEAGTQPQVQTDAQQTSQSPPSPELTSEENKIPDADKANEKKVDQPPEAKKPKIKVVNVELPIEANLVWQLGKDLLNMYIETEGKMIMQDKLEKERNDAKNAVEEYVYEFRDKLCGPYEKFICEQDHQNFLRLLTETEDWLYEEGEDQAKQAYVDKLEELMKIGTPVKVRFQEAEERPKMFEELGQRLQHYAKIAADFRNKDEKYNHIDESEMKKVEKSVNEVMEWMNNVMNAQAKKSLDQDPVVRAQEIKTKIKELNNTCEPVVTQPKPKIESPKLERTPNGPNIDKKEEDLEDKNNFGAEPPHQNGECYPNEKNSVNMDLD
UniProt Q4G0P3: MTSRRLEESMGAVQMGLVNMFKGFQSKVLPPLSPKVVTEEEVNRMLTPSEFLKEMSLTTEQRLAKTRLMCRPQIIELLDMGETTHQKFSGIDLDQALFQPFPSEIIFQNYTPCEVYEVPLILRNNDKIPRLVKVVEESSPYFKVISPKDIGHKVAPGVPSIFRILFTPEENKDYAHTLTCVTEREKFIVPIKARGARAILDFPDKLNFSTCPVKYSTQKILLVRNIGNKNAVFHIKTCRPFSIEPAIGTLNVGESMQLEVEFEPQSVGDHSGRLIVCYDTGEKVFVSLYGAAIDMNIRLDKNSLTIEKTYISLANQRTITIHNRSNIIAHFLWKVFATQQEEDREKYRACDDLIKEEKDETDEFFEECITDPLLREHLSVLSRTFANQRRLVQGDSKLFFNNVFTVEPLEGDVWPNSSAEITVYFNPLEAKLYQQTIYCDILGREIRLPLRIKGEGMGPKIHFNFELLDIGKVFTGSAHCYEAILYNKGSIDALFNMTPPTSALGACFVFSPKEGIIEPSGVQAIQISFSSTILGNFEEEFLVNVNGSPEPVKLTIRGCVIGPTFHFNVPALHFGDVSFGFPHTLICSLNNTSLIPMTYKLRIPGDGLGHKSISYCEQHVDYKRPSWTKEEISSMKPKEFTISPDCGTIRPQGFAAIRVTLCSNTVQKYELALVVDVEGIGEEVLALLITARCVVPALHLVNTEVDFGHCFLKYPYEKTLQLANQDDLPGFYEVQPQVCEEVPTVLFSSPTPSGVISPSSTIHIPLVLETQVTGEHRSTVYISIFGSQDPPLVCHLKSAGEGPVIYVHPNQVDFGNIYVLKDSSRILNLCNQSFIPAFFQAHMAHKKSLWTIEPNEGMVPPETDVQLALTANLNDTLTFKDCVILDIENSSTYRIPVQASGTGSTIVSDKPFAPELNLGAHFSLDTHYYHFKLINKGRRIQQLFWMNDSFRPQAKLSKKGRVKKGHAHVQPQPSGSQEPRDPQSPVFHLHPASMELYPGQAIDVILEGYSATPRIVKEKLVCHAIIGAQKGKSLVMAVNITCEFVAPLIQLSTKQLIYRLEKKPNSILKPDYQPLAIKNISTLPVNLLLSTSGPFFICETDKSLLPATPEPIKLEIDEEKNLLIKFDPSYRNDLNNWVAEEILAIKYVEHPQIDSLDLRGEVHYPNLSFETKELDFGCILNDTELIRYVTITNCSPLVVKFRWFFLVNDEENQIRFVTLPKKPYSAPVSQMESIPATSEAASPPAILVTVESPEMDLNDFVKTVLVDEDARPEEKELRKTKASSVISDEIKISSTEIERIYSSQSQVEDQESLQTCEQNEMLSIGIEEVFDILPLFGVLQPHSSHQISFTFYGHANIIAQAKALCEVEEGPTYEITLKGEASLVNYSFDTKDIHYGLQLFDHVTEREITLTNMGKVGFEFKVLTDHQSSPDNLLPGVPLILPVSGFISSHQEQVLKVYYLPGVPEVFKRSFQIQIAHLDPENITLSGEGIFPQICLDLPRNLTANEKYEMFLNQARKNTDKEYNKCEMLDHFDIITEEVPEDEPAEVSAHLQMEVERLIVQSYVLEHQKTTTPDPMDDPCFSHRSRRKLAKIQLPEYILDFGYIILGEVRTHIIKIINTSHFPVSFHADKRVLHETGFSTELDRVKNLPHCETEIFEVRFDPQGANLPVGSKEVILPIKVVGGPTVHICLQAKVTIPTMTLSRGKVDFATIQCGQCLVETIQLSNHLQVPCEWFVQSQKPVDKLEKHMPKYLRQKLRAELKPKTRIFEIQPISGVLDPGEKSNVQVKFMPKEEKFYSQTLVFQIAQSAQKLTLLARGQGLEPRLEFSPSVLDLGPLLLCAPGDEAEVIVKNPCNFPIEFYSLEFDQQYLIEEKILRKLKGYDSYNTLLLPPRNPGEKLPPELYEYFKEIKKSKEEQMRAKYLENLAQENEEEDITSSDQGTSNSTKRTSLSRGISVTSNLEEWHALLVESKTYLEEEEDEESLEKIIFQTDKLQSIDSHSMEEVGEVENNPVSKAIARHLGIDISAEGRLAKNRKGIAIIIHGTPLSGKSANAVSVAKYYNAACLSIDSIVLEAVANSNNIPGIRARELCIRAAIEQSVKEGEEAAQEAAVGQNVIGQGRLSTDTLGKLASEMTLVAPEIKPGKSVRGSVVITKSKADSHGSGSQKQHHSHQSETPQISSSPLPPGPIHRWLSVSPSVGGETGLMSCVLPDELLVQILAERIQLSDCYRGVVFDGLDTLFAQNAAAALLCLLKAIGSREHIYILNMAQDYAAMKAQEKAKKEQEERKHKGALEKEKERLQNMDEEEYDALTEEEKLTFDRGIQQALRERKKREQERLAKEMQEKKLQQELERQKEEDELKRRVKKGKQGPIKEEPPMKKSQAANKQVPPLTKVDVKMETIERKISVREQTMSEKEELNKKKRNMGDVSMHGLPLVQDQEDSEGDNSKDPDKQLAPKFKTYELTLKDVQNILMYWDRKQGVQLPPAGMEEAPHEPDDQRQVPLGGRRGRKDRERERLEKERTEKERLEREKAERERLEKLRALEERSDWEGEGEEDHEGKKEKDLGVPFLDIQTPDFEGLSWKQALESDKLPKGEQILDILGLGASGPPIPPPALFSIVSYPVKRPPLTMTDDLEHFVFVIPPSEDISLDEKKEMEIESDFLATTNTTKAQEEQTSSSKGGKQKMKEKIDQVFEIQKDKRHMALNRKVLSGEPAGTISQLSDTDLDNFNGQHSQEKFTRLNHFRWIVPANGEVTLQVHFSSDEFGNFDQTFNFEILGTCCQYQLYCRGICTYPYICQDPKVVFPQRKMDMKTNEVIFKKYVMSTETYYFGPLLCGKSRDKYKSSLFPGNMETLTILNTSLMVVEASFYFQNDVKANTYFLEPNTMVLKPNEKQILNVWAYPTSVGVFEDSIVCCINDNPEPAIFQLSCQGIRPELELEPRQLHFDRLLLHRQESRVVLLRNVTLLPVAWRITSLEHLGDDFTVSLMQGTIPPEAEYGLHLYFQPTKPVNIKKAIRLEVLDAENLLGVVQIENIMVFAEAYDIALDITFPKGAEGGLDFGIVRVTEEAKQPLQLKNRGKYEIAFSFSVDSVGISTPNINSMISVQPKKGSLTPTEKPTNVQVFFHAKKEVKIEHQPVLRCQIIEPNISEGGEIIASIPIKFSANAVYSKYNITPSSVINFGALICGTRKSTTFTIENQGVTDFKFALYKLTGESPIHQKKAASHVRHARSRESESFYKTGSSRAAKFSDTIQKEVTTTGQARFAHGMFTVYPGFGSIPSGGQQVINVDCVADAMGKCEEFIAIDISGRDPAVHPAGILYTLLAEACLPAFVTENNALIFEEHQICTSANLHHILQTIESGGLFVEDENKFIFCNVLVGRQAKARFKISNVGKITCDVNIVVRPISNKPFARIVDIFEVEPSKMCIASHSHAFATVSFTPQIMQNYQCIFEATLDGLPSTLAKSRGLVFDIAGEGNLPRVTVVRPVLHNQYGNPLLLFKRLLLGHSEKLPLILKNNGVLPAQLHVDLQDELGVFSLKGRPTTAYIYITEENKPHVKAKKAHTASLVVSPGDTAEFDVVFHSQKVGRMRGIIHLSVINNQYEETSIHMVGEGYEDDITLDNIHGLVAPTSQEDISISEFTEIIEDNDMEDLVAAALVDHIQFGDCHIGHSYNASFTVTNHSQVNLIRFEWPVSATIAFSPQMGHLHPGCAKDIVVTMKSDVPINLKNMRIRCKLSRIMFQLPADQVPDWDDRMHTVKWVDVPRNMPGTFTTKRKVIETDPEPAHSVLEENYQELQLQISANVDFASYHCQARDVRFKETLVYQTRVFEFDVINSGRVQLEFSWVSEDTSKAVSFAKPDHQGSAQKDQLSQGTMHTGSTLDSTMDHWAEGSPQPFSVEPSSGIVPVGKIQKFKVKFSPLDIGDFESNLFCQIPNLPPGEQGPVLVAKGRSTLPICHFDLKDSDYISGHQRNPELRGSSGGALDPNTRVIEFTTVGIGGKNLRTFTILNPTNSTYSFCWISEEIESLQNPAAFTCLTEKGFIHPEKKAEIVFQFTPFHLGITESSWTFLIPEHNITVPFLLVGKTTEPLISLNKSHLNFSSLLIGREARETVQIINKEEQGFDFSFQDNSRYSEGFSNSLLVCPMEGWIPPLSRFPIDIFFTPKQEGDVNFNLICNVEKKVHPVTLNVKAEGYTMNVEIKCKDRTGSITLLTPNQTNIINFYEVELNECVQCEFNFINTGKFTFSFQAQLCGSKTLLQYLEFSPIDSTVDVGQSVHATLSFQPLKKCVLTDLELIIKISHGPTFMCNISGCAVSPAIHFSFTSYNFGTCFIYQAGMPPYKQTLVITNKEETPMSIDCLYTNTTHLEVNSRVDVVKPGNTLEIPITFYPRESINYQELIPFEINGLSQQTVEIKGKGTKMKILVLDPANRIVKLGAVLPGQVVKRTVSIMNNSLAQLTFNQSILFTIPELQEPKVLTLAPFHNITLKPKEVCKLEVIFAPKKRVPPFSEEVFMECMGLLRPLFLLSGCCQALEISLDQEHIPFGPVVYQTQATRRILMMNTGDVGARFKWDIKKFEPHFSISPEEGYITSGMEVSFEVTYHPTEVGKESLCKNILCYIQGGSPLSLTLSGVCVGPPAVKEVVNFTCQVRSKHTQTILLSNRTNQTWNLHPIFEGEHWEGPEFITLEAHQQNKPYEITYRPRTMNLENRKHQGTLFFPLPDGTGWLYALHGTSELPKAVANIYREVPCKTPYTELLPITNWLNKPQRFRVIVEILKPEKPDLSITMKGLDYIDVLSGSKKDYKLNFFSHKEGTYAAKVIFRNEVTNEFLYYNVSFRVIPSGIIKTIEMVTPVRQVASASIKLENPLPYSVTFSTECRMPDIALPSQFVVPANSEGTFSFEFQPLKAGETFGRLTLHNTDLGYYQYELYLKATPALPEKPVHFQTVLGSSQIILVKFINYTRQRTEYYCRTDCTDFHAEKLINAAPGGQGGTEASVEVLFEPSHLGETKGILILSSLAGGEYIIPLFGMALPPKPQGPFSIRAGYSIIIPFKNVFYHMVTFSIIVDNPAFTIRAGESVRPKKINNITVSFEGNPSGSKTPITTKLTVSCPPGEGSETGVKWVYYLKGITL
UniProt Q9C086, whole entry, looked up: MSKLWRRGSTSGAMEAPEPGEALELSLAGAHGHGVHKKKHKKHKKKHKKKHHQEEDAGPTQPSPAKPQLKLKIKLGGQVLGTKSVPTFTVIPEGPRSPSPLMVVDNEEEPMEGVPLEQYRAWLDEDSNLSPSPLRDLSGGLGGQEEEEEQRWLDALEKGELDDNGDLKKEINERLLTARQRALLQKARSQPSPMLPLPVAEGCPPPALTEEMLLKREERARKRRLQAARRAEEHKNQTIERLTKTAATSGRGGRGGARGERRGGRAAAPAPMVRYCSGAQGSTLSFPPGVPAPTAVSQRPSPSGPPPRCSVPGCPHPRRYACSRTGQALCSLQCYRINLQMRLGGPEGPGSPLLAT
UniProt Q9H7X7: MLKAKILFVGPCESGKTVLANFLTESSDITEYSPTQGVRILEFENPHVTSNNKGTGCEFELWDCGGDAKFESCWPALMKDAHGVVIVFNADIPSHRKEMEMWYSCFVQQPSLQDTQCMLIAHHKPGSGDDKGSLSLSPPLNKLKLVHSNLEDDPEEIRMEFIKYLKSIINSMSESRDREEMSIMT

compound: Cc1nc(Nc2ncc(C(=O)Nc3c(C)cccc3Cl)s2)cc(N2CCN(CCO)CC2)n1 [dasatinib]; test: log2 fold change, soluble protein after heating vs DMSO (PISA); higher = thermal stabilisation; K562 lysate, 10 uM; active = over 0.2 and 3.5 SD of the protein, either way, in both replicates (recomputed)
Summary of the method: (§1)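 Dounce homogenisation of K562 pellets in PBS pH 7.4 with 1 mM MgCl2 produced a crude extract, used at 1 mg/mL protein. Exposure to 10 μM compound lasted 30 min, and aliquots were then heated for 3 min across 48°C-58°C, pooled and brought to 0.5% NP-40 at 4°C. The supernatant after 21,000xg for 90 min was quantified by TMTpro 16plex LC-MS/MS with channel sums equalised. Duplicate values are given as log-two fold change in thermal stability relative to solvent controls.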

log2 fold change, inactive:
INPP5A (UniProt Q14642) 0.066
INAFM2 (UniProt P0DMQ5) -0.08
ICAM4 (UniProt Q14773) 0.023
HSPH1 isoform 2 (UniProt Q92598) -0.386
HYOU1, A0A494C039 0
ICAM4 isoform 3 (UniProt Q14773) -0.081
HYDIN (UniProt Q4G0P3) -0.034
INO80B (UniProt Q9C086) 0.32
IFT22 (UniProt Q9H7X7) -0.101
INIP (UniProt Q9NRY2) -0.069
HUWE1, A0A087X1S3 0.123
IDH3A isoform 2 (UniProt P50213) -0.118

compound: Cn1cc(-c2ccc3c(c2)CCN3C(=O)Cc2cccc(C(F)(F)F)c2)c2c(N)ncnc21; test: as above
Summary of the method: as §1

log2 fold change, inactive:
INPP5A (UniProt Q14642) 0.129
INAFM2 (UniProt P0DMQ5) 0.04
ICAM4 (UniProt Q14773) -0.024
HSPH1 isoform 2 (UniProt Q92598) 0.17
HYOU1, A0A494C039 0.066
ICAM4 isoform 3 (UniProt Q14773) -0.098
HYDIN (UniProt Q4G0P3) 0.219
INO80B (UniProt Q9C086) 0.088
IFT22 (UniProt Q9H7X7) 0.004
INIP (UniProt Q9NRY2) 0.207
HUWE1, A0A087X1S3 -0.269
IDH3A isoform 2 (UniProt P50213) 0.014

compound: Cn1cc(CNCC2CCN(c3ncc(C(=O)NO)cn3)CC2)c2ccccc21 [quisinostat]; test: as above
Summary of the method: as §1

log2 fold change, inactive:
INAFM2 (UniProt P0DMQ5) -0.012
IL15RA (UniProt Q13261) 0.156
ILF3 (UniProt K7EKJ9) 0.039
IDUA (UniProt P35475) -0.128
IL13RA1 (UniProt P78552) -0.013
IFT81 (UniProt Q8WYA0) 0.032
IGLL5 (UniProt B9A064) 0.089
INO80 (UniProt Q9ULG1) 0.148
IMP4 (UniProt Q96G21) -0.079
ING4 (UniProt Q9UNL4) 0.04
ING2 (UniProt Q9H160) -0.12

compound: NC(=O)Nc1cc(-c2cccc(F)c2)sc1C(=O)N[C@H]1CCCNC1; test: as above
Summary of the method: as §1

log2 fold change, inactive:
INAFM2 (UniProt P0DMQ5) 0.029
IL15RA (UniProt Q13261) -0.034
ILF3 (UniProt K7EKJ9) 0.049
IDUA (UniProt P35475) -0.19
IL13RA1 (UniProt P78552) 0.039
IFT81 (UniProt Q8WYA0) 0.041
IGLL5 (UniProt B9A064) -0.052
INO80 (UniProt Q9ULG1) -0.05
IMP4 (UniProt Q96G21) 0.017
ING4 (UniProt Q9UNL4) 0.037
ING2 (UniProt Q9H160) -0.014

compound: NC(=O)c1cnc(N[C@@H]2CCCC[C@@H]2N)nc1Nc1cccc(-n2nccn2)c1; test: as above
Summary of the method: as §1

log2 fold change, inactive:
IDS (UniProt P22304) -0.001
HSPH1 isoform 2 (UniProt Q92598) -0.064
HYOU1, A0A494C039 0.005
IGF2BP2 isoform 6 (UniProt Q9Y6M1) 0.079
HUWE1 isoform 2 (UniProt Q7Z6Z7) 0.009
HYDIN (UniProt Q4G0P3) -0.282
ILF3 (UniProt K7EKJ9) 0.165
HSPH1 (UniProt Q5TBM3) 0.015
HVCN1 (UniProt Q96D96) -0.121
IGFN1 isoform 5 (UniProt Q86VF2) -0.133
IGLL5 (UniProt B9A064) -0.155
IFIH1 (UniProt Q9BYX4) -0.237
INO80 (UniProt Q9ULG1) -0.116
IMP4 (UniProt Q96G21) 0.046
INIP (UniProt Q9NRY2) -0.02
HUWE1, A0A087X1S3 -0.086
ING4 (UniProt Q9UNL4) 0.077
IDH3A isoform 2 (UniProt P50213) -0.069

compound: NC1(c2ccc(-c3nc4ccn5c(=O)[nH]nc5c4cc3-c3ccccc3)cc2)CCC1; test: as above
Summary of the method: as §1

log2 fold change, inactive:
INPP5A (UniProt Q14642) -0.037
IDS (UniProt P22304) 0.025
HYOU1, A0A494C039 0.03
ICAM4 isoform 3 (UniProt Q14773) -0.048
INPP5D (UniProt Q92835) 0.342
HVCN1 (UniProt Q96D96) -0.264
INO80B (UniProt Q9C086) -0.029
IGLL5 (UniProt B9A064) 0.775
IFI16 (UniProt Q16666) -0.054
IFT22 (UniProt Q9H7X7) 0
INIP (UniProt Q9NRY2) 0.06
IGHV3-72, A0A4W8ZXM2 0.567
